Source: paper PMC8929347
Where a chain is given by its changes, count along the chain named. No constants are given. Whether binding was seen depends on the method and setting. In cells and extracts the contact can be indirect. Some results given as binding are weak or reduced against the parent protein; the word gives no strength. Tags and fused reporters may be left off the sequences shown.

T1: protein arginine methyltransferase 7 (PRMT7), FLAG-tagged (human) (UniProt Q9NVM4)
T1 sequence: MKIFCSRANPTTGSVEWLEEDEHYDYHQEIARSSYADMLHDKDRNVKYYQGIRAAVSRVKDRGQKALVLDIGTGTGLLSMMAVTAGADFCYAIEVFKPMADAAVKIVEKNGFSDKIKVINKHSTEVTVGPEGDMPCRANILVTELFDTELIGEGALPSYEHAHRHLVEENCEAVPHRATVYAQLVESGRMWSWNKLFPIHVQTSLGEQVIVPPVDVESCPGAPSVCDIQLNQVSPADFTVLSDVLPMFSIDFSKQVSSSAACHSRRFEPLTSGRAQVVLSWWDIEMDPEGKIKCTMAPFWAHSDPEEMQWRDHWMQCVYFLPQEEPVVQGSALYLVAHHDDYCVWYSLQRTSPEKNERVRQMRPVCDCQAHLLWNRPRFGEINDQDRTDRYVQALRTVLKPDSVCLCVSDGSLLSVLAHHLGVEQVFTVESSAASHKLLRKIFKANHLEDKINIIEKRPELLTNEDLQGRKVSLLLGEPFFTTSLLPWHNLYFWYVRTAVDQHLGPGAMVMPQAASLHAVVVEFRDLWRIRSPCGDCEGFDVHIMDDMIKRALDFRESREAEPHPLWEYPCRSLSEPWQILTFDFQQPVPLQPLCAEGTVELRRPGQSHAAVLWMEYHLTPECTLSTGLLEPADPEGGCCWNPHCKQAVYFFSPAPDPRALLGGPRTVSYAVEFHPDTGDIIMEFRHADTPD

B1: argininosuccinate synthase 1 (ASS1), wild type, GFP-tagged (enzyme, UniProt P00966 1-412)
chain: MSSKGSVVLAYSGGLDTSCILVWLKEQGYDVIAYLANIGQKEDFEEARKKALKLGAKKVFIEDVSREFVEEFIWPAIQSSALYEDRYLLGTSLARPCIARKQVEIAQREGAKYVSHGATGKGNDQVRFELSCYSLAPQIKVIAPWRMPEFYNRFKGRNDLMEYAKQHGIPIPVTPKNPWSMDENLMHISYEAGILENPKNQAPPGLYTKTQDPAKAPNTPDILEIEFKKGVPVKVTNVKDGTTHQTSLELFMYLNEVAGKHGVGRIDIVENRFIGMKSRGIYETPAGTILYHAHLDIEAFTMDREVRKIKQGLGLKFAELVYTGFWHSPECEFVRHCIAKSQERVEGKVQVSVLKGQVYILGRESPLSLYNEELVSMNVQGDYEPTDATGFININSLRLKEYHRLQSKVTAK
B2: argininosuccinate synthase 1 (ASS1) p.Leu313Met, GFP-tagged (enzyme, UniProt P00966 1-412)
chain: B1 chain with L313M
B3: argininosuccinate synthase 1 (ASS1) p.Thr323Ile, GFP-tagged (enzyme, UniProt P00966 1-412)
chain: B1 chain with T323I

target: T1, protein arginine methyltransferase 7 (PRMT7), FLAG-tagged (human); assay: co-IP; HEK293 cells co-transfected with PRMT7-FLAG and ASS1-GFP (WT or mutant); NP-40 lysis buffer; PRMT7-FLAG precipitated with anti-FLAG M2 beads, 4°C, 4 h; western blot with anti-GFP and anti-FLAG M2

Binder | binding
B1 | binds
B2 | binds
B3 | binds weakly
